# Measured values: PubChem BioAssay AID504891 (National Center for Advancing Translational Sciences (NCATS), 2011)
# Chains of the proteins cited; added tags and fusions are not shown.
# UniProt Q13526, whole entry: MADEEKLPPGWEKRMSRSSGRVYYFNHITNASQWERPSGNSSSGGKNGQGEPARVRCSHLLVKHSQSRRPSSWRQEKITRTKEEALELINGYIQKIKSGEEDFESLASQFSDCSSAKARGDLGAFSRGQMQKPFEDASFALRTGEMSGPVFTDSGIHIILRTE
# About 35 (0.009%) of roughly 390,000 compounds were called active. All entries are inconclusive by the source's own rule. Clear calls are listed elsewhere. Calls come from the whole dose curve; as a rule, active = well fitted inhibition curve with a large enough effect in the polarisation, with a control signal flat (not every such curve was filed as active); inconclusive = small, poorly fitted or top-dose-only effect, or effect the other way, or a change in a side signal; inactive = no such curve, though single readings can be large or run the other way; the % refers to the polarisation. Some salts or complexes appear as unconnected parts, following the source record.
# Target: Peptidyl-prolyl cis-trans isomerase NIMA-interacting 1 (Homo sapiens) (UniProt Q13526)
# Assay: qHTS Assay to Find Inhibitors of Pin1
# Conditions: Pin1 FP peptide displacement, HiFluor488, 10 min
# Potency is the fitted concentration of half-maximal effect.
row,Compound,Potency
1,COc1ccc2c(c1O)-c1c(O)c(OC)cc3c1[C@H](C2)[N+](C)(C)CC3.O=[N+]([O-])c1cc([N+](=O)[O-])c([O-])c([N+](=O)[O-])c1[O-],inconclusive: 50.1 µM
2,O=C(NCC1(N2CCOCC2)CCCCC1)c1cc(F)c(F)cc1Cl,inconclusive: 89.1 µM
3,O=P1(N(CCCl)CCCl)SCCCS1,inconclusive: 84.9 µM
4,O=C(O)c1cccc(Nc2c([N+](=O)[O-])cc([N+](=O)[O-])cc2[N+](=O)[O-])c1,inconclusive: 56.2 µM
5,CCCN1CCC(Nc2cc(OC)cc(OC)c2)CC1,inconclusive: 67.5 µM
